From PubChem BioAssay AID493014 (National Center for Advancing Translational Sciences (NCATS), 2011) come the findings set out here.

Molecules are shown by their SMILES. The list shows a part of the results. Shown are side measurements of this screen, not its main read-out; they come without a call. Most of these compounds were active or inconclusive in the main read-out, so they are no random draw. The note in brackets gives the kind of curve behind each potency; many fits are weak.

This assay can be described thus: qHTS Assay to Find Inhibitors of Chronic Active B-Cell Receptor Signaling. The settings on record: ABC-DLBCL IkBa-CBG/CBR reporter, luminescence ratio (green luciferase fused to IkBa over red control in TMD8 lymphoma cells), 4 h. The procedure, abridged:
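Compounds up to 46 uM were incubated four hours with TMD8 cells whose green CBG68 luciferase is fused to IkappaBalpha; red CBR luminescence normalised the signal, and concentration-effect curves were fitted to fusion, red and ratio data.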
(In general: qHTS replaces the single test concentration by a dilution series.)

Setting [1] is: measured here: CBR red luminescence, cell number.
Where [2] appears, read: measured here: IkBa-CBG green luminescence.

As for `CCN1CCCC1CNC(=O)c1cc2cc(OC)c(OC)cc2[nH]1` (centres undefined), the AC50 (commonly the concentration at which the activity in the assay is half-maximal) under setting [1] is 10 µM [rising, partial curve, poor fit]. Same read-out and setting: to `Cc1ccc(C(=O)N/C(=C/C=C/c2ccccc2)C(=O)NCc2ccco2)cc1` belongs 31.6 µM [rising, single point]; to `Cc1ccc(NC(=O)CCNS(=O)(=O)c2ccc(Br)cc2)cc1S(=O)(=O)N1CCOCC1`, 3.66 µM [rising, full curve, poor fit]; to `NC(=O)CNC(=O)[C@@H]1CC2(CC(c3cccc(Br)c3)=NO2)CN1C(=O)c1ccc(Br)cc1` (some centres undefined), 35.5 µM [falling, single point]. For `O=C(CC1OC(=O)c2ccccc21)Nc1cccc(S(=O)(=O)N2CCCCCC2)c1` (centres undefined), under setting [1], the AC50 is 15.8 µM [falling, single point]. Still for that read-out and setting: the figure for `COc1ccc(C/C(O)=C(\C#N)c2nc3ccccc3s2)cc1` is 0.461 µM [falling, partial curve, poor fit]; for `NCCNC(=O)c1c(O)c2cccc3c2n(c1=O)CCC3` it is 17.8 µM [falling, partial curve]. Same read-out and setting: the figure for `N/C(Cn1cncn1)=N\OC(=O)c1ccc(Cl)cc1Cl` is 35.5 µM [rising, single point]. Turning to `CC(=O)c1c(C)[nH]c(C(=O)Nc2cccc(S(=O)(=O)N3CCCC3)c2)c1C`, under setting [2], the concentration at half-maximal activity (AC50) was 20.6 µM [falling, single point]. Regarding `O=C(/C=C/c1ccco1)c1ccc(O)cc1`, the AC50 under setting [2] is 11.2 µM [rising, partial curve, poor fit]. In the case of `Cc1nn(-c2ccccc2)c(Cl)c1/C=N/NC(=O)c1ccc(NS(=O)(=O)c2cccs2)cc1`, under setting [1], the AC50 was 17.8 µM [falling, partial curve, poor fit].

Consider `O=[N+]([O-])c1cnc2nc(-c3ccncc3)nn2c1O`, for which the AC50 under setting [1] was 2.82 µM [falling, full curve]. As for `CS(=O)(=O)N1CCN(c2ccccc2NC(=O)Nc2cccc(Cl)c2)CC1`, under setting [1], the half-maximal activity concentration (AC50) was 22.4 µM [falling, single point]. In the case of `CC(C)CNC(=O)C(=O)NCC1OCCCN1S(=O)(=O)c1ccc2c(c1)OCCO2` (centres undefined), under setting [1], the AC50 is 0.501 µM [rising, full curve, poor fit]. The same measure, in the same setting: to `CN(c1ccccc1)S(=O)(=O)c1ccc(C(=O)Nc2nnc(C3=COCCO3)o2)cc1` belongs 28.2 µM [falling, single point].

`O=C(Oc1ccc(-c2cnc3ccccc3n2)cc1)c1ccco1`: the concentration at half-maximal activity (AC50) was 2.51 µM [rising, full curve] under setting [1] and 12.6 µM [rising, single point] under setting [2]. For `CCC(C)Sc1cc(C(F)(F)F)c(C(=O)Nc2ccc(Cl)cc2)cn1` (centres undefined), the AC50 under setting [1] was 15.8 µM [falling, single point]. Still for that read-out and setting: the figure for `CC(C)CN(/C=N/c1sc2c(c1C#N)CCCCC2)CC(C)C` is 25.9 µM [rising, partial curve, poor fit]. Take `C=CCn1c(-c2ccccc2)c[nH]c1=S`: the concentration at half-maximal activity (AC50) by setting is: under setting [1], 29.1 µM [falling, single point]; under setting [2], 29.1 µM [falling, single point]. For `O=C(CSc1nnc(CNC(=O)c2c(F)cccc2Cl)o1)Nc1ccccc1`, under setting [1], the half-maximal activity concentration (AC50) was 29.1 µM [rising, single point]. With `Nc1c(-c2cccc(Cl)c2)cnn1-c1cccc(C(F)(F)F)c1`, the concentration at half-maximal activity (AC50) under setting [1] is 35.5 µM [rising, single point].

With `COc1ccc(OC)c(CNc2sc3c(c2C(=O)Nc2cc(OC)ccc2OC)CCCC3)c1`, the AC50 under setting [1] was 1.12 µM [rising, full curve, poor fit]. As for `N#C/C(=C\c1c[nH]c2ccccc12)C(=O)NC1CC1`, under setting [1], the AC50 is 12.6 µM [falling, single point]. On to `COc1cc(/C=N/NC(=O)c2sc3nc(C)cc(C)c3c2N)ccc1O`, for which the concentration at half-maximal activity (AC50) under setting [1] was 4.47 µM [falling, partial curve]. Consider `Oc1[nH]c2ccccc2c1C=Nc1ccc2c(c1)OCO2`, for which the AC50 under setting [1] is 9.2 µM [falling, partial curve, poor fit].

Regarding `Cc1cccc(C)c1NC(=O)CSCCO`, under setting [1], the AC50 was 35.5 µM [rising, single point]. For the compound `CC(C)Cc1nnc(NC(=O)CC(C)c2ccccc2)s1` (centres undefined), under setting [1], the AC50 is 10 µM [rising, partial curve].

Consider `CC1CN(C(=O)c2ccc(Oc3ccccc3)cc2)CC(C)O1` (centres undefined), for which, under setting [1], the AC50 is 17.8 µM [falling, partial curve, poor fit]. Still for that read-out and setting: to `CC(=O)NC(Cc1c[nH]c2ccccc12)C(=O)OCC(=O)N1CCCCCC1` (centres undefined) belongs 14.1 µM [rising, single point]; to `CCOc1ccccc1-n1nnnc1SCC(=O)NC(=O)Nc1ccc2c(c1)OCCO2`, 29.1 µM [falling, single point]. As to `Cc1ccc(N=Nc2c(O)ccc3n[nH]nc23)cc1`, the AC50 was 11.2 µM [falling, single point] under setting [1] and 0.224 µM [rising, full curve, poor fit] under setting [2].

Regarding `CC1(C)C(=S)N(Cc2ccccc2)c2ccccc21`, the AC50 under setting [1] was 31.6 µM [rising, single point]. On the same count and under the same terms, the figure for `COc1cc(NC(=O)c2cc(-c3ccccc3)on2)cc(OC)c1OC` is 6.31 µM [falling, partial curve, poor fit]; for `CCOC(=O)Cc1csc(NC(=O)c2cc(C)c(C)s2)n1` it is 13 µM [falling, partial curve, poor fit]. With `CCC(=O)N1CCc2cc(Br)cc(S(=O)(=O)NCC3CCCN3CC)c21` (centres undefined), the AC50 under setting [1] was 0.00461 µM [rising, full curve, poor fit]. Still for that read-out and setting: the figure for `O=c1c2ccccc2sc2nc(C3CCCCC3)n(Cc3ccco3)c(=O)c12` is 0.164 µM [falling, full curve, poor fit]; for `CCOC(=O)C1=C(C)C/C(=N\NC(=O)c2ccccc2O)CC1` it is 2 µM [falling, full curve].

For the compound `CCCCOC(=O)c1sc2nc(C)cc(C)c2c1N`, the AC50 under setting [1] is 1.12 µM [rising, partial curve, poor fit]. `O=C(CN1C(=O)NC2(CCCC2)C1=O)Nc1ccc(F)cc1`: the AC50 reads like this: under setting [1], 29.1 µM [falling, single point]; under setting [2], 32.6 µM [rising, partial curve, poor fit].

Turning to `COc1ccc(S(=O)(=O)N(CCc2ccccc2)CC(=O)O)cc1Cl`, under setting [1], the AC50 was 1.64 µM [rising, partial curve, poor fit].

Regarding `CCOc1ccc(NC(=O)/C(C#N)=C/c2ccc(N3CCCC3)c(C)c2)cc1`, the AC50 under setting [1] was 0.411 µM [rising, partial curve, poor fit].

Consider `Cc1ccc(NC(=O)c2cncc(Br)c2)nc1`, for which the AC50 under setting [1] is 35.5 µM [falling, single point]. Still for that read-out and setting: to `O=C(CCCNc1ccccc1)N/N=C/c1cccs1` belongs 22.4 µM [falling, partial curve, poor fit]. For `Cc1ccc(N2CCN(C(=S)c3ccc(-c4ccccc4[N+](=O)[O-])o3)CC2)cc1`, the AC50 by setting is: under setting [1], 35.5 µM [falling, single point]; under setting [2], 17.8 µM [rising, partial curve, poor fit]. On to `COc1cc(C(=O)N[C@H](C(=O)NC2CCCc3ccccc32)C(C)C)cc(OC)c1OC` (some centres undefined), for which, under setting [1], the AC50 is 9.2 µM [rising, partial curve, poor fit]. The same measure, in the same setting: to `CCCN(CC(=O)Nc1ccccc1C)C(=O)CCl` belongs 4.47 µM [falling, full curve, poor fit]; to `COC(=O)c1ccccc1NC(=O)CN1CCC(NC(=O)c2ccccc2C)CC1`, 0.794 µM [rising, full curve, poor fit]; to `COc1cc(NC(=O)COC(=O)CNC(=O)C2CCCCC2)cc(OC)c1`, 11.6 µM [rising, partial curve, poor fit].

In the case of `Cc1nnc(NC(=O)CSc2nnc(CCc3nc4ccccc4[nH]3)n2C)s1`, the AC50 under setting [1] was 5.01 µM [falling, single point]. As to `CSc1ccc(C2N=C(c3ccccc3)NO2)cc1` (centres undefined), the AC50 under setting [1] is 12.6 µM [falling, single point].

Regarding `COc1ccc(-n2c(SC(CN3CCCCC3)CN3CCCC3=O)nc3ccccc3c2=O)cc1` (centres undefined), the AC50 under setting [1] was 35.5 µM [falling, single point]. Regarding `O=C(CN1c2cccc3cccc(c23)S1(=O)=O)N1CCOCC1`, the AC50 under setting [1] was 0.891 µM [rising, full curve, poor fit]. For the compound `O=C(O)c1ccc2ncsc2c1`, the AC50 under setting [1] was 10 µM [falling, partial curve]. For the compound `Cc1cc(C)c(C(=O)OCC(=O)NCc2cccs2)c(C)c1`, the half-maximal activity concentration (AC50) under setting [1] was 35.5 µM [falling, single point].

As to `CC(C)c1ccc(NC(=O)C2=CC=CN3CCS(=O)(=O)N=C23)cc1`, under setting [1], the half-maximal activity concentration (AC50) is 0.731 µM [rising, full curve]. Consider `O=C(CSc1nnc(CNC(=O)c2ccco2)o1)Nc1nc2ccccc2s1`, for which the AC50 runs as follows: under setting [1], 15.8 µM [falling, single point]; under setting [2], 35.5 µM [falling, partial curve, poor fit].

As to `O=C1CCN(S(=O)(=O)c2cc(C(F)(F)F)ccc2Cl)CC1`, the AC50 under setting [1] is 16.4 µM [falling, partial curve, poor fit]. Still for that read-out and setting: to `CC(C)C[C@H](NC(=O)c1nc[nH]c1C(=O)NCCNC(=O)OC(C)(C)C)C(=O)CNCCNC(=O)c1[nH]cnc1C(=O)N[C@@H](C)C(=O)OC(C)(C)C` belongs 0.13 µM [rising, full curve, poor fit].

Turning to `COc1ccc(CNC(=O)Nc2cc(C)cc(C)c2)cc1`, the AC50 under setting [1] is 28.2 µM [falling, single point]. Turning to `O=C(NCC1CCCO1)c1ccccc1-c1nc(-c2ccccc2Cl)no1` (centres undefined), the AC50 under setting [1] is 0.562 µM [rising, full curve, poor fit].

Take `Nc1ccc(S(=O)(=O)Nc2ccc(S(N)(=O)=O)cc2)cc1`: under setting [1], the AC50 is 0.116 µM [falling, full curve, poor fit]. With `Cc1ccc(S(=O)(=O)c2ccc(Oc3ccccc3)cc2)cc1`, the AC50 is, setting by setting: under setting [1], 28.2 µM [falling, single point]; under setting [2], 35.5 µM [rising, partial curve, poor fit].
